# Assay results reported in the supplement of paper PMC10849652.
# Sequences of proteins named here, by UniProt entry; tags and fusion partners are left off. A change or cut given only in a name is not applied to a line headed by its entry.
# UniProt P12036: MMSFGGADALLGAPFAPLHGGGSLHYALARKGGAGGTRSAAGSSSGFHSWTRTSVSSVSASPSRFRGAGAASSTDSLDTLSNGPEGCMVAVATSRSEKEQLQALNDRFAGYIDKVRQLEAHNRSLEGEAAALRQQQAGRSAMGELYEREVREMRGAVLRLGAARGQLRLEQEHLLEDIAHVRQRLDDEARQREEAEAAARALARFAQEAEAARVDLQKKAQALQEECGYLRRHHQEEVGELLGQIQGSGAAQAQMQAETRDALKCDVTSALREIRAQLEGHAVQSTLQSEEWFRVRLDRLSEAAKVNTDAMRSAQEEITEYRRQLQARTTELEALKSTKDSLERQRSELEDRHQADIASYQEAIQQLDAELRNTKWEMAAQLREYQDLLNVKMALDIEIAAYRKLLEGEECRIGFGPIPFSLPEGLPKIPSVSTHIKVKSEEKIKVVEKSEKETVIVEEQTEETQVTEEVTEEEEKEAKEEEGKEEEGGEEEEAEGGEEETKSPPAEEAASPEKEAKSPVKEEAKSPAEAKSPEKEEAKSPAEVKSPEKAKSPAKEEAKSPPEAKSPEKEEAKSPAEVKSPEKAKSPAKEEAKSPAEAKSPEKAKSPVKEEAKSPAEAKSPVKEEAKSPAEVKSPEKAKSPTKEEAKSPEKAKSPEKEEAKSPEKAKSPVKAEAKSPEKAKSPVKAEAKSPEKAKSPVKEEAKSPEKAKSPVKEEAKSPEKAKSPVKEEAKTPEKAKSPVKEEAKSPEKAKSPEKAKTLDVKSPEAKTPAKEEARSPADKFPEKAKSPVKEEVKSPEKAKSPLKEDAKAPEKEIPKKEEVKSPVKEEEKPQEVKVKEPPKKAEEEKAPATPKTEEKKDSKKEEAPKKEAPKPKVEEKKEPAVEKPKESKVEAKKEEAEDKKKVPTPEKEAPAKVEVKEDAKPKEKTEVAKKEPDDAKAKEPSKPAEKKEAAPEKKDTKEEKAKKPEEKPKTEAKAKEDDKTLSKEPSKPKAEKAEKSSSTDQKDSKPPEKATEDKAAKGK
# UniProt Q9GZT8: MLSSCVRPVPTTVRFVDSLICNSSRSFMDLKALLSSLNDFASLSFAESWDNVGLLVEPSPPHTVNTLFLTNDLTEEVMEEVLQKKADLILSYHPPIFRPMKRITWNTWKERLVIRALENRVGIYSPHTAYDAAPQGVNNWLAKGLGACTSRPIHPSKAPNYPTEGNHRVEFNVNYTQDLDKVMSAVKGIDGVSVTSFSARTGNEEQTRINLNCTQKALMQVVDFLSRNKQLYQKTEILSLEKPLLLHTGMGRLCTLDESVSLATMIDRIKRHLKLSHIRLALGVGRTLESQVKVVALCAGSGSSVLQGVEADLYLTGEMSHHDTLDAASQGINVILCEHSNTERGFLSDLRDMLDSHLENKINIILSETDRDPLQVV
# UniProt Q86Y39, whole entry, looked up: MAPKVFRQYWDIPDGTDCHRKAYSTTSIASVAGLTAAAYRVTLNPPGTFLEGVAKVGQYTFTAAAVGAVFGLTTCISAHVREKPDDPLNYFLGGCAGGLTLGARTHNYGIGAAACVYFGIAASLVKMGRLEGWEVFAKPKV
# UniProt P48681: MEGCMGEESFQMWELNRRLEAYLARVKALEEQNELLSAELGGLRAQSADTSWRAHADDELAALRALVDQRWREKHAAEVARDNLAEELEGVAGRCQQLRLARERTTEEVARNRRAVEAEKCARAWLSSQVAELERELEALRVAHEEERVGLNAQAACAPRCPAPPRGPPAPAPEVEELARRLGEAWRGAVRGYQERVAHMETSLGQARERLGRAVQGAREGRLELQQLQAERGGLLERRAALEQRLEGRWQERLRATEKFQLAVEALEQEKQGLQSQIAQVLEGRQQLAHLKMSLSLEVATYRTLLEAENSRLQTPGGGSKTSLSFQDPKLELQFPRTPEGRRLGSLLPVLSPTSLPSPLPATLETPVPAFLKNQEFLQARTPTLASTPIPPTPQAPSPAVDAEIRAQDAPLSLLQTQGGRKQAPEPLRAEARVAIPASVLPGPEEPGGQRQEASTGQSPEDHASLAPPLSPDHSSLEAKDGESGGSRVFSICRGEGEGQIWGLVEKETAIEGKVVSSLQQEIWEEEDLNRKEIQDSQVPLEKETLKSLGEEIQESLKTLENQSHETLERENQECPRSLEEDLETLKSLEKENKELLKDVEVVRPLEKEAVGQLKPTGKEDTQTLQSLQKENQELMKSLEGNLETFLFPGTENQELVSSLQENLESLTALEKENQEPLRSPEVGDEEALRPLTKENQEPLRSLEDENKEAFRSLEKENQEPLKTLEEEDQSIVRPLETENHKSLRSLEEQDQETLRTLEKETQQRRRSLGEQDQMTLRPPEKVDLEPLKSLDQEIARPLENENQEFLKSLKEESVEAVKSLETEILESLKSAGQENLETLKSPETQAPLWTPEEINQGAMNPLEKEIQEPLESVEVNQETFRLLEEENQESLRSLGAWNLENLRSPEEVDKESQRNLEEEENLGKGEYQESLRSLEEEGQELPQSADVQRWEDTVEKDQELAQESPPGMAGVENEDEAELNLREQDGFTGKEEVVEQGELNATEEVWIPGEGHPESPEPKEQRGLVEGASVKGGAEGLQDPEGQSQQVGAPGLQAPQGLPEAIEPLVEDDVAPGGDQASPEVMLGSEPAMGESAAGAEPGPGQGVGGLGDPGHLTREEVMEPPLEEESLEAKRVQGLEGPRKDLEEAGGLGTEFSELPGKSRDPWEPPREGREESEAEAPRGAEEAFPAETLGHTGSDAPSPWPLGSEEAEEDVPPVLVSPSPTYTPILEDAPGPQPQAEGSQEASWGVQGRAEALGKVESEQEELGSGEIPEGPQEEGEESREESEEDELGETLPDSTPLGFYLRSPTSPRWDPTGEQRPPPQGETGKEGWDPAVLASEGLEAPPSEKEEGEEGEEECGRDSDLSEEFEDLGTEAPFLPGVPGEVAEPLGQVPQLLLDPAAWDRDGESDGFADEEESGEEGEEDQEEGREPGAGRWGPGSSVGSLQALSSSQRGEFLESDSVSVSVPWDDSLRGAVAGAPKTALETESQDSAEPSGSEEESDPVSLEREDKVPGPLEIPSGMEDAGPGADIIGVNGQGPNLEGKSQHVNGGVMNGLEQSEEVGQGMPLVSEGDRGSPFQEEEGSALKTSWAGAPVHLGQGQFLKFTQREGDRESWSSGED
# UniProt P46934: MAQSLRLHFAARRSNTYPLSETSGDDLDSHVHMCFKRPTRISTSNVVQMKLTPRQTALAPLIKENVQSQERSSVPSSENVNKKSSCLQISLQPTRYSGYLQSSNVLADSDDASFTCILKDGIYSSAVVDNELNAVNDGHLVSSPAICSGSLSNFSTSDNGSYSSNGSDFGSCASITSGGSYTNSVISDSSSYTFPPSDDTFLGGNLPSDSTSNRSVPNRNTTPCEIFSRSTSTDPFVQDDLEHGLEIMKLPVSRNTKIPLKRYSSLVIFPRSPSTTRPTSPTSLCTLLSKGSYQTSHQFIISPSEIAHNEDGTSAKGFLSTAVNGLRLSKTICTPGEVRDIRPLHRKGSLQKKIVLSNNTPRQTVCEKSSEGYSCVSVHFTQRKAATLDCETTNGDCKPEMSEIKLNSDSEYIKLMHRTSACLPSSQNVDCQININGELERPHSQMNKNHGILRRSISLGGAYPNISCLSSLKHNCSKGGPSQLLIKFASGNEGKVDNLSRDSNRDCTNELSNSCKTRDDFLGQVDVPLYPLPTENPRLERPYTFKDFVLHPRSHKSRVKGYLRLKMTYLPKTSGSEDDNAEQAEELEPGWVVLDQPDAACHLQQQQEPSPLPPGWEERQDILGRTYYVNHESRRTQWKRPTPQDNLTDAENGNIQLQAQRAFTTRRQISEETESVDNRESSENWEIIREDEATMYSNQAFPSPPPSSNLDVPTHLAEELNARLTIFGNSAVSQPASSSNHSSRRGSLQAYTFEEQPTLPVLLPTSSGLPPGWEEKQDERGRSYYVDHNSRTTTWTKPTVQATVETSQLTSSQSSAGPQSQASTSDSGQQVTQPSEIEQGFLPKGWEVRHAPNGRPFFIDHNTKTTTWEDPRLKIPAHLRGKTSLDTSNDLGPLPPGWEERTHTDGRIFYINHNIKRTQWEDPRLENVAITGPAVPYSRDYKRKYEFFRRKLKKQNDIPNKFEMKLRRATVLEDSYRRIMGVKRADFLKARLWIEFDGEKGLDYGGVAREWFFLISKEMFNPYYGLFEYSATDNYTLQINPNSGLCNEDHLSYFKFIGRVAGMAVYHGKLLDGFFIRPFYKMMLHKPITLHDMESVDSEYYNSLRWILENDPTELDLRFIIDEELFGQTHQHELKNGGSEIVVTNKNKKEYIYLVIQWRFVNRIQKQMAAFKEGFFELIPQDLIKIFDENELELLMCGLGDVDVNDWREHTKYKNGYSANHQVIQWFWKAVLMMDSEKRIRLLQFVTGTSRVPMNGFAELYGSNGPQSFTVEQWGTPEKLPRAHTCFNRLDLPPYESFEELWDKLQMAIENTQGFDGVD
# UniProt Q9P032: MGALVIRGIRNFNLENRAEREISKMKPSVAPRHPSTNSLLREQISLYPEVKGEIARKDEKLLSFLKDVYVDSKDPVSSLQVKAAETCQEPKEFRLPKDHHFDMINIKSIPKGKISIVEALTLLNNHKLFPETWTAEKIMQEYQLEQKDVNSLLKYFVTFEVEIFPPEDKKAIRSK
# UniProt Q8NHV4, whole entry, looked up: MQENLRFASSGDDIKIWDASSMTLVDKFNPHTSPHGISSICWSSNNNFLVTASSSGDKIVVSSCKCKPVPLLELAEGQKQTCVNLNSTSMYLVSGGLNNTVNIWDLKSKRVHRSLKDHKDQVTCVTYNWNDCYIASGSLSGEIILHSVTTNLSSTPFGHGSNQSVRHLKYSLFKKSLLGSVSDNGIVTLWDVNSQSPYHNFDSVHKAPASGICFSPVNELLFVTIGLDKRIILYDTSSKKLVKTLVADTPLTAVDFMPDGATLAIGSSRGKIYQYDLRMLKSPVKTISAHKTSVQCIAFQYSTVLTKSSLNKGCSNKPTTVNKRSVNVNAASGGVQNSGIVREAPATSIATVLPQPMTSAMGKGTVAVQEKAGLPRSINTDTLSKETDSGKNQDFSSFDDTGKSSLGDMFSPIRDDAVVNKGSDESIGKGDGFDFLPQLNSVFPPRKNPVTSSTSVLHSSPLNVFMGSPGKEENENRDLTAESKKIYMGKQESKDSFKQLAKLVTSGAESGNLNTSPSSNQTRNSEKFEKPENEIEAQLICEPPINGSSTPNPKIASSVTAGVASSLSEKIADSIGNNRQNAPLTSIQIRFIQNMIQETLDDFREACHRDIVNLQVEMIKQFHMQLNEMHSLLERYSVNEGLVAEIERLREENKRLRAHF
# UniProt P28331, whole entry, looked up: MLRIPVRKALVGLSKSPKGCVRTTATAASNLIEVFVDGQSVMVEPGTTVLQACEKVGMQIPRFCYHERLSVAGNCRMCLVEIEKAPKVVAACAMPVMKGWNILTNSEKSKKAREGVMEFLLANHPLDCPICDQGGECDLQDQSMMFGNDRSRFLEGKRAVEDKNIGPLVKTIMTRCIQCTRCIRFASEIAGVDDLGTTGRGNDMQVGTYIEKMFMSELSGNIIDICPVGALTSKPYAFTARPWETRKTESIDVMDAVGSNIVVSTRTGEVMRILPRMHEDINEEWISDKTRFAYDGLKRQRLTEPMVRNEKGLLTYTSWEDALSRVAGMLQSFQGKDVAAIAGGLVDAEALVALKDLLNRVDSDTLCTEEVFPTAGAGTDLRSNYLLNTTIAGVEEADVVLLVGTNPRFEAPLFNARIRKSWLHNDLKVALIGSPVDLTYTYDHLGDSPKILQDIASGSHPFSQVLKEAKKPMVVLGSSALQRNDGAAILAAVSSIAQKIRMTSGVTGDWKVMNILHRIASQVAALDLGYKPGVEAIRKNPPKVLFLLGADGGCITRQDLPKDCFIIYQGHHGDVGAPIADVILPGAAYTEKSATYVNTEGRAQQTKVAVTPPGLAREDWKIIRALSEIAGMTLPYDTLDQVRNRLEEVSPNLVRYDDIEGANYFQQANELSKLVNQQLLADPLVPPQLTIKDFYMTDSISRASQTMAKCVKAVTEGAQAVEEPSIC
# UniProt Q9NX24: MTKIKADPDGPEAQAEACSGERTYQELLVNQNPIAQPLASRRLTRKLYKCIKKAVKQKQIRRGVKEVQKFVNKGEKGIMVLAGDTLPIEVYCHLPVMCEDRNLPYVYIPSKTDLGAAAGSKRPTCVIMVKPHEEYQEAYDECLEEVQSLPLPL
# UniProt Q86X76: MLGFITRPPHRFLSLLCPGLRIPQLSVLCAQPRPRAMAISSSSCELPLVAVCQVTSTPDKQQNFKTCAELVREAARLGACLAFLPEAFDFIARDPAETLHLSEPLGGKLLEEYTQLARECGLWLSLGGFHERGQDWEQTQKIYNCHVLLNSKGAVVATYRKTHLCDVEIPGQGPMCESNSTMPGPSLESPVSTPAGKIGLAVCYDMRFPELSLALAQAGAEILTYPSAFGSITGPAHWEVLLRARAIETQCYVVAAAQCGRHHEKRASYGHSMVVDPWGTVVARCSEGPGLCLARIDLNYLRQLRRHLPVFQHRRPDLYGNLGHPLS
# The list shows a part of the results.
# Key:
# Assay in all cases: log2 fold change, soluble protein after heating vs DMSO (PISA); higher = thermal stabilisation; K562 lysate, 10 uM; active = over 0.2 and 3.5 SD of the protein, either way, in both replicates (recomputed)
# alvocidib = compound: CN1CC[C@H](c2c(O)cc(O)c3c(=O)cc(-c4ccccc4Cl)oc23)[C@H](O)C1 [alvocidib]
# In short: (§1)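 Values give the log-two fold change in thermal stability against solvent controls, from duplicates. Crude K562 extract at 1 mg/mL protein, made by dounce homogenisation in PBS pH 7.4 with 1 mM MgCl2, was treated with 10 μM compound for 30 min. After 3 min heating across 48°C-58°C, aliquots were pooled, adjusted to 0.5% NP-40 at 4°C and centrifuged at 21,000xg for 90 min. The supernatant was measured by TMTpro 16plex LC-MS/MS with channel sums equalised.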
# Tubastatin A = compound: CN1CCc2c(c3ccccc3n2Cc2ccc(C(=O)NO)cc2)C1 [Tubastatin A]
# In short: as §1
# [1] = compound: CNC(=O)C1=CC=CC=C1NC2=NC(=NC=C2Cl)NC3=C(C=C(C=C3)N4CCOCC4)OC
# In short: as §1
# defactinib = compound: CNC(=O)c1ccc(Nc2ncc(C(F)(F)F)c(NCc3nccnc3N(C)S(C)(=O)=O)n2)cc1 [defactinib]
# In short: as §1
# [2] = compound: CNc1nc(-c2ccc3c(N)n[nH]c3c2)cc(N2C[C@@H](C(=O)NC3CCCCC3)CC[C@H]2C)n1
# In short: as §1
# encorafenib = compound: COC(=O)N[C@@H](C)CNc1nccc(-c2cn(C(C)C)nc2-c2cc(Cl)cc(NS(C)(=O)=O)c2F)n1 [encorafenib]
# In short: as §1
# [3] = compound: COC(=O)[C@H](CCSC)NC(=O)C1=C(C=C(C=C1)NC[C@H](CS)N)C2=CC=CC=C2
# In short: as §1
# alisertib = compound: COc1cc(Nc2ncc3c(n2)-c2ccc(Cl)cc2C(c2c(F)cccc2OC)=NC3)ccc1C(=O)O [alisertib]
# In short: as §1
# [4] = compound: COc1cc2nc(-c3cc(F)ccc3O)nc(N[C@@H]3CNC[C@H]3C(C)(C)O)c2cc1OC
# In short: as §1
# gefitinib = compound: COc1cc2ncnc(Nc3ccc(F)c(Cl)c3)c2cc1OCCCN1CCOCC1 [gefitinib]
# In short: as §1
Target,log2 fold change (alvocidib),log2 fold change (Tubastatin A),log2 fold change [1],log2 fold change (defactinib),log2 fold change [2],log2 fold change (encorafenib),log2 fold change [3],log2 fold change (alisertib),log2 fold change [4],log2 fold change (gefitinib)
NEFH (UniProt P12036),inactive: 0.046,inactive: -0.015,inactive: 0.011,inactive: -0.004,inactive: 0.036,inactive: 0.01,inactive: -0.139,inactive: 0.043,inactive: 0.072,inactive: -0.059
NIF3L1 (UniProt Q9GZT8),inactive: -0.056,inactive: 0.047,inactive: 0.005,inactive: 0.021,inactive: 0.062,inactive: 0.008,inactive: -0.034,inactive: -0.048,inactive: 0.012,inactive: 0.055
NDUFAF3 (UniProt Q9BU61),inactive: -0.008,inactive: -0.05,inactive: 0,inactive: 0.048,inactive: -0.021,inactive: 0.03,inactive: -0.046,inactive: -0.003,inactive: -0.076,inactive: -0.001
NFYB (UniProt P25208),inactive: -0.009,inactive: 0.017,inactive: -0.019,inactive: -0.038,inactive: -0.035,inactive: 0.036,inactive: -0.01,inactive: -0.032,inactive: 0.006,inactive: -0.021
NDUFV3 isoform 2 (UniProt P56181),inactive: -0.026,inactive: 0.043,inactive: -0.008,inactive: -0.01,inactive: 0.026,inactive: -0.005,inactive: -0.045,inactive: -0.002,inactive: 0.023,inactive: -0.007
NIPSNAP3A (UniProt Q9UFN0),active: 0.288,inactive: 0.015,inactive: 0.016,inactive: -0.021,inactive: 0.025,inactive: 0.016,inactive: -0.022,inactive: -0.023,inactive: 0.005,inactive: -0.023
NEDD4L (UniProt Q96PU5),inactive: 0.024,inactive: 0.067,inactive: -0.022,inactive: -0.013,inactive: -0.066,inactive: 0.019,inactive: -0.101,inactive: 0.033,inactive: 0,inactive: -0.001
NKRF isoform 2 (UniProt O15226),inactive: 0,inactive: -0.095,inactive: -0.025,inactive: -0.071,inactive: 0.103,inactive: 0.027,inactive: -0.01,inactive: -0.038,inactive: -0.043,inactive: -0.034
NDUFA11 (UniProt Q86Y39),inactive: 0.014,inactive: -0.02,inactive: 0.026,inactive: 0.028,inactive: -0.016,inactive: 0.03,inactive: 0.026,inactive: -0.019,inactive: 0.01,inactive: 0.021
NES (UniProt P48681),inactive: -0.008,inactive: 0.008,inactive: 0.023,inactive: 0.02,inactive: -0.046,inactive: 0.018,inactive: -0.137,inactive: -0.007,inactive: 0.025,inactive: 0.011
NGRN (UniProt Q9NPE2),inactive: -0.008,inactive: 0.005,inactive: -0.047,inactive: -0.013,inactive: -0.011,inactive: -0.01,inactive: -0.015,inactive: -0.091,inactive: -0.015,inactive: 0.037
NENF (UniProt Q9UMX5),inactive: 0.03,inactive: 0.033,inactive: -0.03,inactive: 0.024,inactive: 0.01,inactive: -0.02,inactive: -0.002,inactive: 0.054,inactive: 0.018,inactive: 0.01
NDUFA7 (UniProt O95182),inactive: 0.002,inactive: 0.032,inactive: 0.001,inactive: 0.053,inactive: 0.023,inactive: -0.026,inactive: -0.127,inactive: 0.019,inactive: -0.073,inactive: 0.036
NEDD4 isoform 4 (UniProt P46934),inactive: 0.006,inactive: 0.169,inactive: 0.016,inactive: 0.025,inactive: -0.037,inactive: 0.017,inactive: -0.045,inactive: 0.007,inactive: 0.018,inactive: -0.022
NFIC (UniProt P08651),inactive: -0.103,inactive: -0.104,inactive: 0.078,inactive: -0.153,inactive: -0.048,inactive: 0.121,inactive: -0.025,inactive: 0,inactive: -0.025,inactive: 0.117
NDUFAF4 (UniProt Q9P032),inactive: 0.053,inactive: -0.008,inactive: -0.047,inactive: 0.011,inactive: -0.026,inactive: -0.015,inactive: -0.047,inactive: 0.023,inactive: -0.043,inactive: 0.006
NEK9 (UniProt Q8TD19),inactive: -0.062,inactive: -0.062,inactive: 0.193,inactive: 0.08,inactive: -0.009,inactive: -0.018,inactive: -0.008,inactive: -0.048,inactive: -0.01,inactive: -0.039
NDUFA4 (UniProt O00483),inactive: 0.022,inactive: 0.055,inactive: 0.054,inactive: 0.143,inactive: 0.004,inactive: 0.028,inactive: 0.009,inactive: 0.055,inactive: -0.079,inactive: -0.133
NKAP (UniProt Q8N5F7),inactive: -0.074,inactive: -0.1,inactive: -0.208,inactive: -0.164,inactive: 0.122,inactive: 0.154,inactive: -0.046,inactive: -0.019,inactive: 0.149,inactive: 0.023
NEXN (UniProt Q0ZGT2),inactive: -0.102,inactive: -0.049,inactive: 0.026,inactive: 0.134,inactive: 0.158,inactive: -0.096,inactive: 0.044,inactive: 0.004,inactive: -0.086,inactive: 0.092
NEDD1 isoform 3 (UniProt Q8NHV4),inactive: -0.03,inactive: -0.017,inactive: 0.073,inactive: 0.001,inactive: 0.005,inactive: 0.068,inactive: -0.034,inactive: -0.032,inactive: 0.02,inactive: 0.032
NDRG2 (UniProt Q9UN36),inactive: 0.006,inactive: 0.018,inactive: -0.014,inactive: 0.025,inactive: 0.027,inactive: -0.028,inactive: -0.037,inactive: -0.056,inactive: -0.008,inactive: 0
NDUFS1 isoform 2 (UniProt P28331),inactive: 0.008,inactive: -0.018,inactive: -0.024,inactive: 0.028,inactive: 0.014,inactive: -0.011,inactive: 0.05,inactive: 0.03,inactive: -0.025,inactive: -0.001
NHP2 (UniProt Q9NX24),inactive: -0.083,inactive: 0.001,inactive: -0.017,inactive: 0.024,inactive: -0.058,inactive: 0.079,inactive: -0.032,inactive: -0.03,inactive: 0.023,inactive: 0.03
NFATC1 (UniProt O95644),inactive: -0.024,inactive: -0.138,inactive: 0.124,inactive: -0.012,inactive: -0.031,inactive: -0.071,inactive: 0.048,inactive: -0.025,inactive: 0.001,inactive: 0.027
NDUFS6 (UniProt O75380),inactive: 0.013,inactive: 0.084,inactive: -0.003,inactive: 0.013,inactive: -0.001,inactive: -0.025,inactive: -0.033,inactive: 0.033,inactive: -0.005,inactive: -0.088
NEU1 (UniProt Q99519),inactive: -0.022,inactive: 0.015,inactive: 0.019,inactive: 0.047,inactive: -0.074,inactive: 0.041,inactive: 0.018,inactive: -0.1,inactive: 0.006,inactive: -0.016
NIT1 (UniProt Q86X76),inactive: 0.02,inactive: 0.032,inactive: 0.038,inactive: -0.025,inactive: 0.119,inactive: 0.027,inactive: -0.002,inactive: 0.011,inactive: 0.027,inactive: 0.05
NDE1 isoform 1 (UniProt Q9NXR1),inactive: -0.064,inactive: 0.02,inactive: 0.014,inactive: 0.023,inactive: 0.018,inactive: 0.057,inactive: -0.09,inactive: 0.013,inactive: 0.017,inactive: 0.041

# Some entries already given with just log2 fold change (alvocidib):
Target | log2 fold change (alvocidib)
NEU1 (UniProt Q99519) | inactive: -0.022
NIT1 (UniProt Q86X76) | inactive: 0.02

# Complete entries from above. Values in the order: log2 fold change (alvocidib)	log2 fold change (Tubastatin A)	log2 fold change [1]	log2 fold change (defactinib)	log2 fold change [2]	log2 fold change (encorafenib)	log2 fold change [3]	log2 fold change (alisertib)	log2 fold change [4]	log2 fold change (gefitinib)
# NFATC1 (UniProt O95644) as listed: inactive: -0.024	inactive: -0.138	inactive: 0.124	inactive: -0.012	inactive: -0.031	inactive: -0.071	inactive: 0.048	inactive: -0.025	inactive: 0.001	inactive: 0.027
# NENF (UniProt Q9UMX5) as listed: inactive: 0.03	inactive: 0.033	inactive: -0.03	inactive: 0.024	inactive: 0.01	inactive: -0.02	inactive: -0.002	inactive: 0.054	inactive: 0.018	inactive: 0.01
